This experiment deals with integrin αvβ3 (UniProt P06756). Briefly: cell adhesion inhibition assay (Table 4).

By UniProt entry, the sequences of proteins in these tests, tags left out. Where a name states a change or a piece, a line headed by the entry shows the natural chain unless it says otherwise.
UniProt P06756: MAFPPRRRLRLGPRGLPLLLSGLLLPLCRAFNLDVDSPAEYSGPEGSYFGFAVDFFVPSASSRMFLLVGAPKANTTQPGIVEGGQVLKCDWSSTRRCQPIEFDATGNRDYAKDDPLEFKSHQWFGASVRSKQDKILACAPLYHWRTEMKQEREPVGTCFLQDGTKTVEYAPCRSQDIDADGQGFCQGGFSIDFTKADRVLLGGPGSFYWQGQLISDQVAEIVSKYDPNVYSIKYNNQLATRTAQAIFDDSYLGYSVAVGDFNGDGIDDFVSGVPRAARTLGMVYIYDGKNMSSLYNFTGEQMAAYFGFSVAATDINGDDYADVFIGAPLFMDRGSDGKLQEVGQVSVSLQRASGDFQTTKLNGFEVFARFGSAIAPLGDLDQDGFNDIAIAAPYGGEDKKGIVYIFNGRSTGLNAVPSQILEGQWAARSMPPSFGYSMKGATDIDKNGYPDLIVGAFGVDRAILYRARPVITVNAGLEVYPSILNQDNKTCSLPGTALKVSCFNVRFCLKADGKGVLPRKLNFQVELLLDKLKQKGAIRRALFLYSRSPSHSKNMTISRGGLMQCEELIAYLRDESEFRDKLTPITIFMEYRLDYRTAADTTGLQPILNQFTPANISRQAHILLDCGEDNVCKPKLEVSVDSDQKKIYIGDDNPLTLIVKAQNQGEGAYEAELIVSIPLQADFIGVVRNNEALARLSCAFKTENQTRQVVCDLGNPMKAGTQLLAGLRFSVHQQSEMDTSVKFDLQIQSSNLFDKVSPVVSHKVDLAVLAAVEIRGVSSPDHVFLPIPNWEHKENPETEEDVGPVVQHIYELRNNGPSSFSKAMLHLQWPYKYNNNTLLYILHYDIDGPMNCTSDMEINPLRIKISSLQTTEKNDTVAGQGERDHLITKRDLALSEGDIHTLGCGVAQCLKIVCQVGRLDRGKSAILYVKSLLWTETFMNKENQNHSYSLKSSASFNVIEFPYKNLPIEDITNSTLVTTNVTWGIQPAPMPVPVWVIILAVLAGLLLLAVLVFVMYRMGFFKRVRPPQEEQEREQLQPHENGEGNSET

This note sets out measurements from patent US20150218251A1.

No constants are given. Whether binding was seen depends on the method and setting. Some binding calls cover weakened binding; strength is not graded here.

B1: Control FNIII 10 mutant (SEQ ID NO: 50, …) (designed binder)
chain: HHHHHHVSDVPRDLEVVAATPTSLLISWDAPAVTVRYYRITYGETGGNSPVQEFTVPGSKSTATISGLKPGVDYTITVYAVTPRGDWNEGSKPISINYRT
On to B1, for which the binding entry is reported as “binds”.
